This is an account of results in article PMC4658663.

Sequences of proteins named here, by UniProt entry; tags and fusion partners are left off.
UniProt P25100: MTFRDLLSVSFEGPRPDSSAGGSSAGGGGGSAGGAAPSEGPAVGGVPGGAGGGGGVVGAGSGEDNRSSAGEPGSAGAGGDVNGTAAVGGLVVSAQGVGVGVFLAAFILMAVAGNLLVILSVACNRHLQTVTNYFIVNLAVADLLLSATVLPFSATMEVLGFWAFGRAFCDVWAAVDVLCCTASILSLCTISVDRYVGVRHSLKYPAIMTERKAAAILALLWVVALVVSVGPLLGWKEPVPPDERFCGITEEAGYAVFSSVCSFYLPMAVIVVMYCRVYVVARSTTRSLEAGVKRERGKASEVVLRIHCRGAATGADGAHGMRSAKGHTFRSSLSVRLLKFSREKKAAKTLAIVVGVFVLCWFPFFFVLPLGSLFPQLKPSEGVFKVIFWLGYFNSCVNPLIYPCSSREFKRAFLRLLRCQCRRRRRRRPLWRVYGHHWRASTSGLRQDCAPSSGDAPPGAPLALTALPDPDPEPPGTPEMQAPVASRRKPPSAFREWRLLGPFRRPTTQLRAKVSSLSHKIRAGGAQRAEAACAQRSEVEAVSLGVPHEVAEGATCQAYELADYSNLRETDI
UniProt Q14160: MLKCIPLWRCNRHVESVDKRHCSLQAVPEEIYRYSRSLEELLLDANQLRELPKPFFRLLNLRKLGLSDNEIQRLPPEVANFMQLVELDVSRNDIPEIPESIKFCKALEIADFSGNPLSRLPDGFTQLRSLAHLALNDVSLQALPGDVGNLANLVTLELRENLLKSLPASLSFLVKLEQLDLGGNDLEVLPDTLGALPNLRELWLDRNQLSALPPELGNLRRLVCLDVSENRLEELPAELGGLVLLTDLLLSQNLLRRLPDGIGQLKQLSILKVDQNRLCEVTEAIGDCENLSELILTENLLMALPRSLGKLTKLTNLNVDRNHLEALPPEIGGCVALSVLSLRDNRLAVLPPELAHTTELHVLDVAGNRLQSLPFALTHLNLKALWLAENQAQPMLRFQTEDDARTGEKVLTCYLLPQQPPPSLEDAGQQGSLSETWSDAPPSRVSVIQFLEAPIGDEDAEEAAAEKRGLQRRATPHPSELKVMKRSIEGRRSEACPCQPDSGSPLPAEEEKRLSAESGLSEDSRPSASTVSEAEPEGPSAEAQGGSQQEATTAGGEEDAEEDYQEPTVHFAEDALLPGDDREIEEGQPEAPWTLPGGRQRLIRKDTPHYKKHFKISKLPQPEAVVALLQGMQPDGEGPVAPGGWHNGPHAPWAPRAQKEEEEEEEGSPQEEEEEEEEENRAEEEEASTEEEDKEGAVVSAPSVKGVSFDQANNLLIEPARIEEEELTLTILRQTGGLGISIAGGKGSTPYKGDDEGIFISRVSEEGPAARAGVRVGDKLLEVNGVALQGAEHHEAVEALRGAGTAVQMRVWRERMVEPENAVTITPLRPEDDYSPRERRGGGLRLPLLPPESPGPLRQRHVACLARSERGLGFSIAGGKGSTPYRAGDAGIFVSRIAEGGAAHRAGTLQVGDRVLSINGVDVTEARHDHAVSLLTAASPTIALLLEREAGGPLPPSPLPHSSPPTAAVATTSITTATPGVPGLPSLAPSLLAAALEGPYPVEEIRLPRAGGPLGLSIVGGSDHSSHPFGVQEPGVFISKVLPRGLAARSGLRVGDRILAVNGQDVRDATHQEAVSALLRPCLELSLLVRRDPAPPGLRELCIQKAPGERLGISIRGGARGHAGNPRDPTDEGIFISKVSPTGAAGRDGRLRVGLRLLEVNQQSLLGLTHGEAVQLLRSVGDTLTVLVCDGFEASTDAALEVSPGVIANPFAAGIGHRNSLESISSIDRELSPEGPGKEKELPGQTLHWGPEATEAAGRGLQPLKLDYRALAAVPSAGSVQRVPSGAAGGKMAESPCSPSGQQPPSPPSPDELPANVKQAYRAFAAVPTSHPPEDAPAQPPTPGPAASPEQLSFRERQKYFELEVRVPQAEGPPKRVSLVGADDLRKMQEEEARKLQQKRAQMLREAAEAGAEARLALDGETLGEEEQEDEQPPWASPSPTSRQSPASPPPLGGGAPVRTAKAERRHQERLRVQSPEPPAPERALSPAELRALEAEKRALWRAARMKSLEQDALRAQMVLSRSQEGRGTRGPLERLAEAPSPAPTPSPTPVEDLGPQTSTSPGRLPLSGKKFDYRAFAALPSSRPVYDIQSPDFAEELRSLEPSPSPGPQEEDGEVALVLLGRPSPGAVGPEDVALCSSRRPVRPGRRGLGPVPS
UniProt P27361: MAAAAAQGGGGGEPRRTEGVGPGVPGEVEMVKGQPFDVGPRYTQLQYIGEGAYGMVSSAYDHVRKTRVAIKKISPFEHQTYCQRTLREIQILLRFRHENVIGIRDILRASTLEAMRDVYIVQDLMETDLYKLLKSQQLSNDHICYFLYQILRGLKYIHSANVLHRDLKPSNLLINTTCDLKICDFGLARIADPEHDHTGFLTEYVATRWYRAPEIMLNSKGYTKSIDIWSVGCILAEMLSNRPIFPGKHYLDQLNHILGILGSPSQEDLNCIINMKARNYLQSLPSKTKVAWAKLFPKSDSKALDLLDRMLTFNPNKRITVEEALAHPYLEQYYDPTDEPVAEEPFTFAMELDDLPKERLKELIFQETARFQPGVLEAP
UniProt P28482: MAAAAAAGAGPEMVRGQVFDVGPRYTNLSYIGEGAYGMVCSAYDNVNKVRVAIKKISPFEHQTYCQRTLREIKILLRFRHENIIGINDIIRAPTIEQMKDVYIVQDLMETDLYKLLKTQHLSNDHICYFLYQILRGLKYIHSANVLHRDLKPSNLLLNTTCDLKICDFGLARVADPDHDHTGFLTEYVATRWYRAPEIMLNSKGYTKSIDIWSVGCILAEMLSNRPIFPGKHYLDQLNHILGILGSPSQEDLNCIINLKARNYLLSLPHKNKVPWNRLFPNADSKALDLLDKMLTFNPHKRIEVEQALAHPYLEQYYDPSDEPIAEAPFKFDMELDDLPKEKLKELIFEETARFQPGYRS
UniProt Q9Y2X7: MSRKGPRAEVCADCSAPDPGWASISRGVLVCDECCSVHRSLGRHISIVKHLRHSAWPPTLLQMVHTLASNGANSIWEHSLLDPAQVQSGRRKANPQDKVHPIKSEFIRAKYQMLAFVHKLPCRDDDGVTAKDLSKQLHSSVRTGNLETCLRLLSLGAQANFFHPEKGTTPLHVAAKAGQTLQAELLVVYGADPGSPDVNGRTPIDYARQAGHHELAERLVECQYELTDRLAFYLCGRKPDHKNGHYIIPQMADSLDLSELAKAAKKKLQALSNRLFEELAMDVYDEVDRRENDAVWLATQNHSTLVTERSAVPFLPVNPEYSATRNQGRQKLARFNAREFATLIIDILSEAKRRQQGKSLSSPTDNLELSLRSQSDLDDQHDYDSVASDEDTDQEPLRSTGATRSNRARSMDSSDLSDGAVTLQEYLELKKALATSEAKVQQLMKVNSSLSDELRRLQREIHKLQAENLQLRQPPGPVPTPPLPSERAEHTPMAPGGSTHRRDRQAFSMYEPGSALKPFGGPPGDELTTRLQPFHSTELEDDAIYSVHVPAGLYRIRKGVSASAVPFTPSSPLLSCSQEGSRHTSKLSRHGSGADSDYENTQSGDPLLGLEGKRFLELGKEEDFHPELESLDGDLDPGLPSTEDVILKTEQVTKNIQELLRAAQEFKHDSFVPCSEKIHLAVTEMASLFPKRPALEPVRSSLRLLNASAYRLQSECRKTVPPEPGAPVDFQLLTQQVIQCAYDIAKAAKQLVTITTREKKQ
UniProt Q14155: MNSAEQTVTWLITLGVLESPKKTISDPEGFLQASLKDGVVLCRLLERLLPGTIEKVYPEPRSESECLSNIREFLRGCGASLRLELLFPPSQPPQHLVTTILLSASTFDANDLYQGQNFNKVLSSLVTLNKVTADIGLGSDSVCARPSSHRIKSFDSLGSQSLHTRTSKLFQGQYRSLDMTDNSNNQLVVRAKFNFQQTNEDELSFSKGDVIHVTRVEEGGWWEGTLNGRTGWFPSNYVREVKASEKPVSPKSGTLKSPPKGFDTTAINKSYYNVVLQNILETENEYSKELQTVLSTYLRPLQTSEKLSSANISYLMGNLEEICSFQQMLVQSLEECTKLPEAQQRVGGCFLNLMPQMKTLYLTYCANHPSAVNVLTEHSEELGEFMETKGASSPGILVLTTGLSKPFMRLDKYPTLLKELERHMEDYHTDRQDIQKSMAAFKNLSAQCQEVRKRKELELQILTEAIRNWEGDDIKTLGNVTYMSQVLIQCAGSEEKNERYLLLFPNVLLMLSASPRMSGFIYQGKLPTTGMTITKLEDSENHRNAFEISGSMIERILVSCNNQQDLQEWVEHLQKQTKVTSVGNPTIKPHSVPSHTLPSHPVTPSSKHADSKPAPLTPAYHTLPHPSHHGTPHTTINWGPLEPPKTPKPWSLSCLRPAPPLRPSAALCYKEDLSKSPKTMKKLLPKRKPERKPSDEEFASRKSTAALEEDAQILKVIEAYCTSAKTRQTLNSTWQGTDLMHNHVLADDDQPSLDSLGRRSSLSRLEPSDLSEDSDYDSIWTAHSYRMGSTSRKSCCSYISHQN

Assay [1] deals with TAP–ADRA1D (human) (UniProt P25100). The experiment in a line: affinity purification with mass spectrometry; TAP/MS; TAP–ADRA1D transfected in MCF-7 cells.
The target is the same in assay [2]. Briefly: affinity purification with mass spectrometry; TAP/MS; TAP–ADRA1D transfected in A549 cells.
Assay [3] concerns the target TAP-SCRIB (human) (UniProt Q14160). The experiment in a line: affinity purification with mass spectrometry; TAP/MS; TAP-tagged bait transfected alone (or with empty vector) in HEK293T cells; TEV cleavage omitted; eluates on Velos-Pro Orbitrap Elite; protein FDR 2.5%.
For assay [4] the target is unchanged. The experiment in a line: affinity purification with mass spectrometry; TAP/MS; TAP-SCRIB co-expressed with ADRA1D–ΔPDZ in HEK293T cells.
For assay [5] the target is unchanged. The experiment in a line: affinity purification with mass spectrometry; TAP/MS; TAP-SCRIB co-expressed with WT ADRA1D in HEK293T cells.
Assay [6] concerns the target T1, MAS1 (proto-oncogene MAS type I), TAP-tagged (human) (UniProt P04201).
T1 sequence: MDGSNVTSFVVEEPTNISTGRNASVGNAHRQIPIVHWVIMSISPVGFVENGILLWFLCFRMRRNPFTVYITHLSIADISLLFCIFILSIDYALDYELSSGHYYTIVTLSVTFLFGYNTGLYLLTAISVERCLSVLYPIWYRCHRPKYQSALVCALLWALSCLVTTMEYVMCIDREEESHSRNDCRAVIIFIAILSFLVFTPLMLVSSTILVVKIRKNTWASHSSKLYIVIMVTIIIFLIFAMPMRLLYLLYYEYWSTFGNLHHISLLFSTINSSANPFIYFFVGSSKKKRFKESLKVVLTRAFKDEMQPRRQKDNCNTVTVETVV
The experiment in a line: affinity purification with mass spectrometry; TAP/MS; TAP-tagged bait transfected alone (or with empty vector) in HEK293T cells; TEV cleavage omitted; eluates on Velos-Pro Orbitrap Elite; protein FDR 2.5%.

Assay [7] deals with TAP–ADRA1D (human) (UniProt P25100). The experiment in a line: affinity purification with mass spectrometry; TAP/MS; TAP–ADRA1D transfected in HeLa cells.
For assay [8] the target is unchanged. Briefly: affinity purification with mass spectrometry; TAP/MS; TAP–ADRA1D transfected in A375 cells.
For assay [9] the target is unchanged. The experiment in a line: affinity purification with mass spectrometry; TAP/MS; TAP–ADRA1D transfected in SW480 cells.

Results are given in words; binding and its absence hold for the method and conditions named. In cells and extracts the contact can be indirect. Here binding means that the protein was enriched with, or labelled near, the bait; the list need not be complete. For some assays here: Where a sequence is shown, tags or fusion partners need not be part of it.

For the molecule MAPK3 (from UniProt P27361 1-379), the binding result with TAP–ADRA1D (human) [1] is given as “binds”.
Regarding MAPK1 (from UniProt P28482 1-360), the binding result in the assay with TAP–ADRA1D (human) [2] and with TAP–ADRA1D (human) [1] was “binds” in each case.
As for GIT1 (from UniProt Q9Y2X7 1-761), the binding result in the assay with TAP-SCRIB (human) [3], in the assay with TAP-SCRIB (human) [4] and in the assay with TAP-SCRIB (human) [5] was “binds” throughout.
With “ADRA1D (ectopic, co-expressed with TAP-SCRIB) (from UniProt P25100 1-572) (receptor)”, in the assay with TAP-SCRIB (human) [5], the binding result is “binds”.
Turning to ARHGEF7 (from UniProt Q14155 1-803), the binding entry in the assay with TAP-SCRIB (human) [3], with TAP-SCRIB (human) [4] and with TAP-SCRIB (human) [5] was “binds” each time.

B1: PPP6R1 (protein, UniProt Q9UPN7 1-881)
chain: MFWKFDLHTSSHLDTLLEREDLSLPELLDEEDVLQECKVVNRKLLDFLLQPPHLQAMVAWVTQEPPDSGEERLRYKYPSVACEILTSDVPQINDALGADESLLNRLYGFLQSTGSLNPLLASFFSKVMGILINRKTDQLVSFLRKKDDFVDLLLQHIGTSAIMDLLLRLLTCVERPQLRQDVVNWLNEEKIVQRLIEQIHPSKDENQHSNASQSLCDIIRLSREQMIQVQDSPEPDQLLATLEKQETIEQLLSNMFEGEQSQSVIVSGIQVLLTLLEPRRPRSESVTVNSFFSSVDGQLELLAQGALESTVSSVGALHALRPRLSCFHQLLLEPPKLEPLQMTWGMLAPPLGNTRLHVVKLLASALSANDAALTHELLALDVPNTMLDLFFHYVFNNFLHAQVEGCVSTMLSLGPPPDSSPETPIQNPVVKHLLQQCRLVERILTSWEENDRVQCAGGPRKGYMGHLTRVAGALVQNTEKGPNAEQLRQLLKELPSEQQEQWEAFVSGPLAETNKKNMVDLVNTHHLHSSSDDEDDRLKEFNFPEEAVLQQAFMDFQMQRMTSAFIDHFGFNDEEFGEQEESVNAPFDKTANITFSLNADDENPNANLLEICYKDRIQQFDDDEEEEDEEEAQGSGESDGEDGAWQGSQLARGARLGQPPGVRSGGSTDSEDEEEEDEEEEEDEEGIGCAARGGATPLSYPSPGPQPPGPSWTATFDPVPTDAPTSPRVSGEEELHTGPPAPQGPLSVPQGLPTQSLASPPARDALQLRSQDPTPPSAPQEATEGSKVTEPSAPCQALVSIGDLQATFHGIRSAPSSSDSATRDPSTSVPASGAHQPPQTTEGEKSPEPLGLPQSQSAQALTPPPIPNGSAPEGPASPGSQ
With B1, the binding entry in [6] is “binds”.

B2: SNTA, endogenous (protein, UniProt Q13424 1-505)
chain: MASGRRAPRTGLLELRAGAGSGAGGERWQRVLLSLAEDVLTVSPADGDPGPEPGAPREQEPAQLNGAAEPGAGPPQLPEALLLQRRRVTVRKADAGGLGISIKGGRENKMPILISKIFKGLAADQTEALFVGDAILSVNGEDLSSATHDEAVQVLKKTGKEVVLEVKYMKDVSPYFKNSTGGTSVGWDSPPASPLQRQPSSPGPTPRNFSEAKHMSLKMAYVSKRCTPNDPEPRYLEICSADGQDTLFLRAKDEASARSWATAIQAQVNTLTPRVKDELQALLAATSTAGSQDIKQIGWLTEQLPSGGTAPTLALLTEKELLLYLSLPETREALSRPARTAPLIATRLVHSGPSKGSVPYDAELSFALRTGTRHGVDTHLFSVESPQELAAWTRQLVDGCHRAAEGVQEVSTACTWNGRPCSLSVHIDKGFTLWAAEPGAARAVLLRQPFEKLQMSSDDGASLLFLDFGGAEGEIQLDLHSCPKTIVFIIHSFLSAKVTRLGLLA
With B2, the binding result with TAP–ADRA1D (human) [7] is “binds”.

B3: DTNB (protein, UniProt O60941 1-627)
chain: MIEESGNKRKTMAEKRQLFIEMRAQNFDVIRLSTYRTACKLRFVQKRCNLHLVDIWNMIEAFRDNGLNTLDHTTEISVSRLETVISSIYYQLNKRLPSTHQISVEQSISLLLNFMIAAYDSEGRGKLTVFSVKAMLATMCGGKMLDKLRYVFSQMSDSNGLMIFSKFDQFLKEVLKLPTAVFEGPSFGYTEHSVRTCFPQQRKIMLNMFLDTMMADPPPQCLVWLPLMHRLAHVENVFHPVECSYCRCESMMGFRYRCQQCHNYQLCQNCFWRGHAGGPHSNQHQMKEHSSWKSPAKKLSHAISKSLGCVPTREPPHPVFPEQPEKPLDLAHIVPPRPLTNMNDTMVSHMSSGVPTPTKRLQYSQDIPSHLADEHALIASYVARLQHCARVLDSPSRLDEEHRLIARYAARLAAEAGNVTRPPTDLSFNFDANKQQRQLIAELENKNREILQEIQRLRLEHEQASQPTPEKAQQNPTLLAELRLLRQRKDELEQRMSALQESRRELMVQLEELMKLLKEEEQKQAAQATGSPHTSPTHGGGRPMPMPVRSTSAGSTPTHCPQDSLSGVGGDVQEAFAQGTRRNLRNDLLVAADSITNTMSSLVKELHSAEEGAEEEEEKMQNGKDRG
As to B3, the binding entry with TAP–ADRA1D (human) [7], with TAP–ADRA1D (human) [2], with TAP–ADRA1D (human) [1], with TAP–ADRA1D (human) [8] and with TAP–ADRA1D (human) [9] was “binds” throughout.

B4: ARHGEF6 (protein, UniProt Q15052 1-776)
chain: MNPEEQIVTWLISLGVLESPKKTICDPEEFLKSSLKNGVVLCKLINRLMPGSVEKFCLDPQTEADCINNINDFLKGCATLQVEIFDPDDLYSGVNFSKVLSTLLAVNKATEDQLSERPCGRSSSLSAANTSQTNPQGAVSSTVSGLQRQSKTVEMTENGSHQLIVKARFNFKQTNEDELSVCKGDIIYVTRVEEGGWWEGTLNGRTGWFPSNYVREIKSSERPLSPKAVKGFETAPLTKNYYTVVLQNILDTEKEYAKELQSLLVTYLRPLQSNNNLSTVEVTSLLGNFEEVCTFQQTLCQALEECSKFPENQHKVGGCLLSLMPHFKSMYLAYCANHPSAVNVLTQHSDELEQFMENQGASSPGILILTTNLSKPFMRLEKYVTLLQELERHMEDTHPDHQDILKAIVAFKTLMGQCQDLRKRKQLELQILSEPIQAWEGEDIKNLGNVIFMSQVMVQYGACEEKEERYLMLFSNVLIMLSASPRMSGFIYQGKIPIAGTVVTRLDEIEGNDCTFEITGNTVERIVVHCNNNQDFQEWLEQLNRLIRGPASCSSLSKTSSSSCSAHSSFSSTGQPRGPLEPPQIIKPWSLSCLRPAPPLRPSAALGYKERMSYILKESSKSPKTMKKFLHKRKTERKPSEEEYVIRKSTAALEEDAQILKVIEAYCTSANFQQGHGSSTRKDSIPQVLLPEEEKLIIEETRSNGQTIMEEKSLVDTVYALKDEVRELKQENKRMKQCLEEELKSRRDLEKLVRRLLKQTDECIRGESSSKTSILP
Take B4: the binding result with TAP-SCRIB (human) [3], with TAP-SCRIB (human) [4] and with TAP-SCRIB (human) [5] was “binds” each time.
